Data taken from paper doi:10.1101/2025.07.22.666133.

The chains behind the UniProt entries cited, without tags or fusion partners. Where a name states a change or a piece, a line headed by the entry shows the natural chain unless it says otherwise.
UniProt P02545: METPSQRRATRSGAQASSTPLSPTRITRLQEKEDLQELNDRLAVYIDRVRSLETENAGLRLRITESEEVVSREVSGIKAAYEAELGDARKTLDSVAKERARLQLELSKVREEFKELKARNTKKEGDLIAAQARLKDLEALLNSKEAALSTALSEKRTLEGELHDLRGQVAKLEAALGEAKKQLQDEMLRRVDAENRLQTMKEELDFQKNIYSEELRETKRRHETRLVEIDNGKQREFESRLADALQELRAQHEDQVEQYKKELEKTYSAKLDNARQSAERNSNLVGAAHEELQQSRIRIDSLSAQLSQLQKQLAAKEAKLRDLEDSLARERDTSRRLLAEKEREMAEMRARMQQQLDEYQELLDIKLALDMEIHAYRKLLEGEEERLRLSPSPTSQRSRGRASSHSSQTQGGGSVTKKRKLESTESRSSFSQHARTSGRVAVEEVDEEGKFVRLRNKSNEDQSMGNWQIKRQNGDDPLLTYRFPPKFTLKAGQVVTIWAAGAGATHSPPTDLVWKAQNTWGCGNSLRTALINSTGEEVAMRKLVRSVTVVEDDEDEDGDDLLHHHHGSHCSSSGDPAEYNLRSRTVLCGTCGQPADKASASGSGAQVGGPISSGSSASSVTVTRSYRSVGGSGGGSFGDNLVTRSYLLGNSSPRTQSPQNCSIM

Biological target: FLAG-tagged full-length human lamin A (human) (UniProt P02545)
Assay: affinity purification with mass spectrometry

binding | Binder
binds | Sun1 (protein, UniProt Q9D666 1-913) MDFSRLHTYTPPQCVPENTGYTYALSSSYSSDALDFETEHKLEPVFDSPRMSRRSLRLVTTASYSSGDSQAIDSHISTSRATPAKGRETRTVKQRRSASKPAFSINHLSGKGLSSSTSHDSSCSLRSATVLRHPVLDESLIREQTKVDHFWGLDDDGDLKGGNKAATQGNGELAAEVASSNGYTCRDCRMLSARTDALTAHSAIHGTTSRVYSRDRTLKPRGVSFYLDRTLWLAKSTSSSFASFIVQLFQVVLMKLNFETYKLKGYESRAYESQSYETKSHESEAHLGHCGRMTAGELSRVDGESLCDDCKGKKHLEIHTATHSQLPQPHRVAGAMGRLCIYTGDLLVQALRRTRAAGWSVAEAVWSVLWLAVSAPGKAASGTFWWLGSGWYQFVTLISWLNVFLLTRCLRNICKVFVLLLPLLLLLGAGVSLWGQGNFFSLLPVLNWTAMQPTQRVDDSKGMHRPGPLPPSPPPKVDHKASQWPQESDMGQKVASLSAQCHNHDERLAELTVLLQKLQIRVDQVDDGREGLSLWVKNVVGQHLQEMGTIEPPDAKTDFMTFHHDHEVRLSNLEDVLRKLTEKSEAIQKELEETKLKAGSRDEEQPLLDRVQHLELELNLLKSQLSDWQHLKTSCEQAGARIQETVQLMFSEDQQGGSLEWLLEKLSSRFVSKDELQVLLHDLELKLLQNITHHITVTGQAPTSEAIVSAVNQAGISGITEAQAHIIVNNALKLYSQDKTGMVDFALESGGGSILSTRCSETYETKTALLSLFGVPLWYFSQSPRVVIQPDIYPGNCWAFKGSQGYLVVRLSMKIYPTTFTMEHIPKTLSPTGNISSAPKDFAVYGLETEYQEEGQPLGRFTYDQEGDSLQMFHTLERPDQAFQIVELRVLSNWGHPEYTCLYRFRVHGEPIQ
binds | Filamin A-interacting protein 1-like (protein, UniProt Q6P6L0 1-1131) MRSRSSNAEGSAPKQIPRHSKFQDSIQDMKHRTHKKDPSCESEGVLPRPVSEKSHTGKGHHTEDLSRDDLLFLLSILEGELQARDEVIGILRAEKIDLALLEAQYGFVTPKKVLEALQRDAFQAKSAPWQEDIYEKPMNELDKVVEKHKESHRRILEQLLMVERSHRQTIMEMEEEKRKHKEYMKKSDEFINLLEQECERLKKLIDQETASQEKKEQEKEKRIKTLKEELTKLKSFALMVVDEQQRLTAQLALQRQKIQALTTSAKETQGKLALAEARAQEEEQKATRLEKELQTQTTEFHQNQDKIMAKLTNEDSQNRQLRQKLAALSRQIDELEETNRSLRKAEEELQDIKDKINKGEYGNSGIMDEVDELRKRVLDMEGKDEELIKMEEQCRDLNKRLEKETVQSKDFKLEVDKLSVRITALEKLEDALDKSKQECYSLKCNLEKEKMTTKQLSEELESLNARIKELEAIESRLEKTEITLKDDLTKLKTLTVMLVDERKTMSEKLKQTEDKLQSTTSQLQAEQNKVTTVTEKLIEETKRALKSKTDAEEKMYSVTKERDDLRNKLKAEEEKGHDLLSKVTILKNRLQSLEAIEKDFVKNKLNQDSSKSTAALHQENNKIKELSQEVENLKLKLKDMKAIEDDLMKTEDEYETLERRYANERDKAQFLSQELEHAKMELAKYKLAEKTESSHEQWLFRRLQEEEAKSGHLSREVDALKEKIHEYMATEDLICHLQGDHSLLQKKLNQQENRNRDLGREIENLTKELERYRHFSKSLRPSLNGRRISDPQVFSKEVQTEAADSEPPDYKSLIPLERAVINGQFYEENEDQDDDPNEEESVLSFRCSQSSSLPMNRKLWIPWMKSKEGHPQNGKIQTKSNGNFVQPGDLVLSHTPGQPLHIKVTPDHIQNTATLEITSPTTESPHSYTSTAVIPNCGTPKQRITILQNASITPIKSKSSTESLMNLEQSMSPVTMATFARAQTPESCGSVTPERTMSPIQVLAMTGSPSSPEQGCSPEPIEISAKHAIFRVSPDRQSSWQFQRSNSNSSSVITTEDNKIHIHLGSPYMQAVAGPMRPASPSAPLQDNRTQGLTNGALNKTTNKVTSSITITPTATPLPRQSQITVSNIYN

No constants are given. Whether binding was seen depends on the method and setting. In cells and extracts the contact can be indirect. These calls come from enrichment with a bait or labelling near it, and not all partners need be listed.
